Patent publication US20210346398A1, “COMBINATIONS WITH A C-19 STEROID FOR TREATING CANCERS” (priority 2018, published 2021)
For at least one compound, name, drawing or mass did not settle the structure.

Assays:
VCaP cells = experiment: WST-1 proliferation assay of VCaP cells; settings: FIG. 4B
LNCaP cells = experiment: WST-1 proliferation assay of LNCaP cells; settings: FIG. 4A, day 5

CC(O)(CS(=O)(=O)c1ccc(F)cc1)C(=O)Nc1ccc(C#N)c(C(F)(F)F)c1 (stereo not shown) [Bicalutamide]
effect on cell growth as single compound (VCaP cells): not showing a significant growth inhibitors effect | effect on cell growth of the combination with 4-OHT (VCaP cells): synergistic effect | effect on cell growth of the combination with 4-OHT (LNCaP cells; 4-OHT 10 μM plus Bicalutamide 10 μM or Enzalutamide 10 μM): growth inhibition with a significant synergistic effect | effect on cell growth as single compound (LNCaP cells; 4-OHT 10 μM, Bicalutamide 5 or 10 μM, Enzalutamide 5 or 10 μM): not affected
